Source: PubChem BioAssay AID493246 (Drosophila RNAi Screening Center, 2011)
Test: 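Identify essential fly genes by loss of cell viability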 (primary screen). Cell system: Drosophila Kc and S2R+ cells. Knock-down reagent: long dsRNA against Drosophila genes. Measurement: 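Cell number per well after knock-down, printed as raw plate values; calls were based on per-plate z-scores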. Scale: Kc cell number and S2R+ cell number: higher = more cells remaining. Active means: 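Counted as a hit if cell number falls by a z-score of at least 3 within its plate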.
The screen tested about 21,000 reagents; this is a random part of those that have a named target and a result. Of all reagents, 429 (2%) were called active. 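Values are raw and not normalised between plates; calls rest on per-plate z-scores that were not deposited.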 The record does not give: the amount of reagent, the time to read-out.

After knock-down of Bdp1 [DRSC03192] the results were Kc cell number, rep 1 = 1.33e6; Kc cell number, rep 2 = 1.46e6; S2R+ cell number, rep 1 = 1.13e6; S2R+ cell number, rep 2 = 1.13e6; inactive.
For Ube3a [DRSC10600], the values are Kc cell number, rep 1 = 1.31e6; Kc cell number, rep 2 = 1.40e6; S2R+ cell number, rep 1 = 1.17e6; S2R+ cell number, rep 2 = 1.12e6; inactive.
CG7227 [DRSC03032] showed Kc cell number, rep 1 = 1.24e6; Kc cell number, rep 2 = 1.28e6; S2R+ cell number, rep 1 = 5.65e5; S2R+ cell number, rep 2 = 7.90e5; inactive.
Silencing of ppk25 [DRSC04973] resulted in: Kc cell number, rep 1 = 1.49e6; Kc cell number, rep 2 = 1.63e6; S2R+ cell number, rep 1 = 1.20e6; S2R+ cell number, rep 2 = 1.39e6; inactive.
Silencing of GABA-B-R2 [DRSC14134] gave: Kc cell number, rep 1 = 1.56e6; Kc cell number, rep 2 = 1.54e6; S2R+ cell number, rep 1 = 1.18e6; S2R+ cell number, rep 2 = 1.25e6; inactive.
Ir8a [DRSC17817] scored Kc cell number, rep 1 = 1.58e6; Kc cell number, rep 2 = 1.53e6; S2R+ cell number, rep 1 = 1.09e6; S2R+ cell number, rep 2 = 1.18e6; inactive.
Ir8a [DRSC17869] gave Kc cell number, rep 1 = 1.67e6; Kc cell number, rep 2 = 1.51e6; S2R+ cell number, rep 1 = 1.02e6; S2R+ cell number, rep 2 = 1.13e6; inactive.
Against CG4741 [DRSC04485], the values are Kc cell number, rep 1 = 1.49e6; Kc cell number, rep 2 = 1.58e6; S2R+ cell number, rep 1 = 1.38e6; S2R+ cell number, rep 2 = 1.52e6; inactive.
Against O-fut2 [DRSC18608], the values are Kc cell number, rep 1 = 4.92e5; S2R+ cell number, rep 1 = 8.30e5; inactive.
Silencing of Gga [DRSC18260] came out at: Kc cell number, rep 1 = 5.37e5; S2R+ cell number, rep 1 = 9.38e5; inactive.
brwl [DRSC01080] scored Kc cell number, rep 1 = 1.34e6; Kc cell number, rep 2 = 1.27e6; S2R+ cell number, rep 1 = 8.41e5; S2R+ cell number, rep 2 = 9.37e5; inactive.
With knock-down of brwl [DRSC02729] the results were Kc cell number, rep 1 = 1.33e6; Kc cell number, rep 2 = 1.39e6; S2R+ cell number, rep 1 = 1.03e6; S2R+ cell number, rep 2 = 1.07e6; inactive.
Silencing of CG14684 [DRSC14907] gave: Kc cell number, rep 1 = 1.48e6; Kc cell number, rep 2 = 1.47e6; S2R+ cell number, rep 1 = 1.25e6; S2R+ cell number, rep 2 = 1.31e6; inactive.
eIF1A [DRSC16937] showed Kc cell number, rep 1 = 1.28e6; Kc cell number, rep 2 = 1.28e6; S2R+ cell number, rep 1 = 6.22e5; S2R+ cell number, rep 2 = 7.42e5; inactive.

Entries above whose target name starts with I or i:
Ir8a [DRSC17817]: Kc cell number, rep 1 = 1.58e6; Kc cell number, rep 2 = 1.53e6; S2R+ cell number, rep 1 = 1.09e6; S2R+ cell number, rep 2 = 1.18e6; activity call = inactive
Ir8a [DRSC17869]: Kc cell number, rep 1 = 1.67e6; Kc cell number, rep 2 = 1.51e6; S2R+ cell number, rep 1 = 1.02e6; S2R+ cell number, rep 2 = 1.13e6; activity call = inactive
